Test results published in PubChem BioAssay AID1508600 (Functional Genomics Laboratory (NCATS/FGL), 2020).
Out of some 53,000 sequences screened, about 3,700 (7%) were called active.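 The calls were made as follows: active = gene knockdowns whose robust z-score for IL-1 alpha signal is at least 2 or at most -2, so actives lie on both sides; inactive = the rest.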 Some of the results follow.

Experiment: Components of the Cytosolic LPS Sensing Pathway: Gene Identification via Genome-wide siRNA Screen;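 also: robust z of the log signal after scaling to non-targeting control siRNA wells of the plate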
Conditions: RAW264.7 macrophages, IL-1a HTRF, actives lie on both sides, screened at 100 nM (by protocol), cells primed 5 h with Pam3CSK4 first
Procedure, shortened: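 Cells (RAW264.7, 1×10^4 per well) were transfected with siRNA at 100 nM and cultured 48h at 37 degrees C. Pam3CSK4 was added for 5 hours; LipidA transfection followed for 24 hour. IL-1a was then measured by HTRF.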

z-score, active:
CCACCAAGGAGACAUAGAUTT against Nans 2.85, CGAUUUUCACCAAUUGUGGTT against Diaph2 -2.03, GCUCGAAAACUGAGAGUUATT against Pcdhgb1 3.32, CCUAACCAAGAUCCAAUCUTT against 6330549D23Rik -2.85, GGAAAAAGACUUCUAUCACTT against Ly6g6g -2.03, GCCAGCUACCGAGUCUAUUTT against Tkt 2.8

z-score, inactive:
GGCAUGUUUUGGGAAGAGCTT against Btbd6 0.808, GGGAUAAAAACAGUGGCUUTT against Slc7a12 -0.198, GGGAGUCCUUAAAAGUCGUTT against Mas1 -0.136, GGGUCAUUUUUUAGCCUUCTT against Vmn1r89 0.496, GGACAUAAAGGUAAAAUGATT against Zfp275 -1.63, GGCCUUGAUGGUACCAUGUTT against Uqcr11 -1.51, GGCCUGAGAUCGAUCAUUCTT against Plcb4 0.425, GGAAAGAGAAGAAAACAAATT against Tmem25 -0.184, GCACAGAUAAAACUAACUATT against Kcna7 -0.603, GGGAUAGCUGUCUUUCAUUTT against Extl3 -1.02, GGCAUUCUUCAAGAGGACGTT against Esrrg -1.01, GGAUGUGAAGUCAGUUUCATT against Tmem82 -1.96, GGAAACGUGGAACAUAAGATT against Gapdhs 1.95, CGUAGGAAUGAUCACAUUGTT against Olfr1136 0.206, GGAGUAUGGCGAAUUCUAUTT against Hsp90ab1 1.34, GCAGAUCGGUUCUCAGAUGTT against Tmem269 1.05, GGGAAAAGAUUCAGCUAGATT against Ntn4 -1.16, GGGAGAACUAUCACCAUAATT against Wdr11 -0.302, CCAAGGGACACAUGCCAGATT against Olfr714 0.925, GCCAUAACCUAAGACUUUATT against Adcyap1r1 0.0309, GGCAGCCUCUGAAAUUGCUTT against Slc25a35 -1.63, GGAAUUAUGUGGAAAACAGTT against Mapk9 0.337, GGGUCAAAUCUGCUUUUUCTT against Olfr272 -0.287, CCAAGAUACCUUUUUUGAGTT against Paox 0.455, GGUCUUAAACAGUUACAUGTT against Dmtf1 -0.0586, GGCAGUAGUUCAGUUGAUATT against Fam163a 0.893, GGUGAUUUCUUUGUGUGAUTT against Rpl22 0.175, GCGGUCGUUGGCAAAAACUTT against Commd8 0.828, CCAUGGAUGUAUGAGACUGTT against H2-M1 -0.131, GCGAGAAAGAAUUUAACCUTT against Sash3 -0.592, GGUUCUAUGACAGAAAUGATT against Rngtt -0.452, GCAUGUUCGCACGUGUCAATT against 5330439B14Rik -1.05, GGCAACAGACAAGAACAAGTT against Plpp7 -0.221, GGUCAUCUCUCUUUAGCCUTT against Haspin -0.255, GGCACAAGACCUUCAGCACTT against Olfr566 0.461, GGCUUCAUGGUUCCCUGUATT against Rhox1 -1.22, CGACCUCAGACUGAAGGACTT against Msr1 1.43, GCUAGCUGUAAAACAUUGCTT against Nppc 1.19, GGGCUGGAUUUUGAUGAUGTT against Arnt 0.0297, GGGACUGGAUUUCUGUAUUTT against Derl1 -0.694, CGACAUAGCUACCAGUCUGTT against Ido1 0.042, GGAUGUGGAGAACAGCUUCTT against Ppt1 -0.768, GGCCCAACGACAUUUAUGUTT against Pop7 -1.38, GGUGCUACGGGACAUUGAGTT against Kmt5c 0.208, GCAGAUGCAUGAGAAAUCGTT against Aplnr -0.992, CCUUUGUCCGGUCCAUUCCTT against Hk1 -0.654, GGACUUUCUGGUCUGCCCUTT against Gli1 1.97, GGAGGCAUAUCUAGGCACUTT against Cdkn1a -1.82, GGAAAAUCUUGACUUCAUCTT against Cbwd1 -0.316, GCUGUGGACGGACUCUAUATT against Dhodh 0.00503, GCUGAGGAAAUGCGAAGUCTT against Tmem98 0.0406, GGGAAGUUUUAUGGUUGAUTT against Rad51c 0.333, GGAGAAUGUUUUUGACUGGTT against Mfsd6l 0.471, GGCAUCCAUAAAGAACAGATT against Ranbp10 -0.85, CGUUGUGUUCUGAACAACCTT against Pced1a 0.419, CGAAGGGCAACGGUUCUCATT against Akr1b7 0.427, GGCUGUCCUGGUCCAAUAUTT against Slc35a2 -1.43, GGUUGCCAAAUACUGCUGUTT against Ppm1a -1.41, GCCUUUGCUGUUAUACAAUTT against Wdr19 0.581, GGCUUAUUAGACGGAUGAATT against Rpl7 0.858, GGGACUUCUCCCAAUGUUGTT against Ucp2 -1.18, GGAGAUAUUCUGGUAUGACTT against Orc1 -1.29, GCGUGUUCUAUCCUAUUUCTT against Sqle 0.0541, GGAGUGUGUGCUUUUAAAATT against Rabggta 0.248, GGCUCGUCUCAUGUUUUGGTT against Arfrp1 0.303, GGAAGAAGGAAGGUUCAGATT against Strm -0.581, GAAAUGGGCAGAGAGAUCGTT against Speer3 -0.422, GGGUGGAGACCAAACAAUATT against Npy1r 1.21, GGAAGGAACCGUUCUAUAATT against Serpinc1 0.221, GCUACAUGGAUUGGAUUAATT against C1rl 0.682, GCUCUACAAGAAUGCUCGGTT against Vps28 0.748, GAGGGCAUAAUGGUUUUUATT against H3c3 0.624, GCCUGAAAUGAAAGUUGCUTT against Olfr1136 -1.35, GACAUGGACAUCUACACUATT against H2-Q8 0.106, GGAGGUACAGAUAGAGACUTT against Tcl1b4 0.13, CCUGGCUUACAGUACAUGCTT against Adarb1 1.21, GCCAUACUUUAAGAGUGUGTT against Nipal2 -0.841, GGUCUGACCUGUUUGAUCATT against Fhod3 0.596, GGUCUGUUUGACAUUAUACTT against Pdha1 -0.22, GGAAACAGCACCUUGUUGATT against Olfr205 1.55, GGCUCUGAUGUUUCUAAAATT against Hdac10 1.29, GCCUUUUGUACUAAGGUCCTT against Zfp715 1.65, GGUUUGUUAGACCAUUACGTT against Cep43 0.356, GCUCUCCAGCUAAAUGACCTT against Lsm3 0.257, CAUCGUUGGAGCUAUAGAUTT against Olfr1098 -1.3, GGCUCAUCUCCUAUGACCUTT against Lipe -0.483, CCAAACGAGGACUAAAAAUTT against Xcl1 -0.488, GGUCAAAAGACAAUGUGGATT against Git2 -1.59, GGUCCAUACACCUGCUCUGTT against Opcml 0.492, CCAUAACCGUGGAAAUUUUTT against Galnt3 0.184, GCCCAUGUCCGUUACUAUATT against Trim2 -0.61, CGUGCACACUCAGAGAGUUTT against Wac 1.24, GGAUGUGGAGUCACUGAUGTT against Ccdc91 -0.863, GCUAAAGCGGAAACCUAAGTT against Nelfa 0.717, GCACUGACAAAUCAUGGUATT against 4833439L19Rik -0.164, GGUAAUUUGUUUGUGGUGATT against Mtnr1b -1.13, GGGUAGCUGGCGAAUCAAATT against Ptpro -0.351, GCACUGCAUUUGAAUAGCATT against Lrfn5 -1.45, GGUUCAGCAAACCUACAAATT against Dpy19l1 0.943, GGAGAUUCUGUGCUACUCCTT against Xrcc3 0.457, GGGUCCUACAAAAAAAAAATT against Miip 0.88
